{"source": "PubChem BioAssay AID504808 (Drosophila RNAi Screening Center, 2011)", "aim": "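Genes whose loss lifts activity of an E2F-responsive reporter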 (primary screen)", "system": "Drosophila S2 cells", "knock-down reagent": "long dsRNA against Drosophila genes", "measured": "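Dual luciferase plate measurements; E2F-specific signal taken as firefly over Renilla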", "reading the numbers": "E2F firefly: higher = more E2F reporter activity; Renilla normaliser: higher = more normaliser reporter signal", "rule for the call": "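a knock-down counted as active when the firefly/Renilla E2F signal rose above 50%, a threshold chosen arbitrarily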", "note": "In all, the deposit lists about 21,000 reagents; this is a random part of those with a known target gene and a result. Of all reagents, 18 (0.084%) were called active. 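Raw counts without plate normalisation, one of two replicates; the ratio scores behind the calls were not deposited.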 A number with no mark means an inactive call. A plus sign joins genes that one reagent is predicted to hit. Not stated in the record: the amount of reagent, the time to read-out."}
{"gene": "Coq4 + frc", "amplicon": "DRSC10381", "E2F firefly, rep 1": 1.57e5, "Renilla normaliser, rep 1": 8186}
{"gene": "Coq4 + frc", "amplicon": "DRSC10382", "E2F firefly, rep 1": 75200, "Renilla normaliser, rep 1": 4434}
{"gene": "Cad74A (Cadherin 74A)", "amplicon": "DRSC10636", "E2F firefly, rep 1": 1.77e5, "Renilla normaliser, rep 1": 8937}
{"gene": "sals (sarcomere length short)", "amplicon": "DRSC14925", "E2F firefly, rep 1": 73908, "Renilla normaliser, rep 1": 3732}
{"gene": "sals (sarcomere length short)", "amplicon": "DRSC16113", "E2F firefly, rep 1": 1.41e5, "Renilla normaliser, rep 1": 6846}
{"gene": "CNT1 + CG13742", "amplicon": "DRSC06413", "E2F firefly, rep 1": 1.48e5, "Renilla normaliser, rep 1": 5577}
{"gene": "foxo (forkhead box, sub-group O)", "amplicon": "DRSC13017", "E2F firefly, rep 1": 53988, "Renilla normaliser, rep 1": 2967}
{"gene": "foxo (forkhead box, sub-group O)", "amplicon": "DRSC15463", "E2F firefly, rep 1": 73346, "Renilla normaliser, rep 1": 3275}
{"gene": "CG8673", "amplicon": "DRSC03105", "E2F firefly, rep 1": 1.40e5, "Renilla normaliser, rep 1": 4580}
{"gene": "Kaz (Katazuke)", "amplicon": "DRSC14637", "E2F firefly, rep 1": 1.08e5, "Renilla normaliser, rep 1": 5244}
{"gene": "VhaM9.7-c (Vacuolar H[+] ATPase M9.7 subunit c)", "amplicon": "DRSC08204", "E2F firefly, rep 1": 73339, "Renilla normaliser, rep 1": 3306}
{"gene": "janA (janus A)", "amplicon": "DRSC16972", "E2F firefly, rep 1": 99738, "Renilla normaliser, rep 1": 5540}
{"gene": "CG32087", "amplicon": "DRSC10806", "E2F firefly, rep 1": 1.21e5, "Renilla normaliser, rep 1": 6335}
{"gene": "CG17562", "amplicon": "DRSC15243", "E2F firefly, rep 1": 1.05e5, "Renilla normaliser, rep 1": 5598}
{"gene": "mRpS18A (mitochondrial ribosomal protein S18A)", "amplicon": "DRSC14369", "E2F firefly, rep 1": 1.55e5, "Renilla normaliser, rep 1": 6953}
{"gene": "CG8321", "amplicon": "DRSC07148", "E2F firefly, rep 1": 3036, "Renilla normaliser, rep 1": 198}
{"gene": "Cyp6a23 (Cytochrome P450 6a23)", "amplicon": "DRSC07383", "E2F firefly, rep 1": 1.01e5, "Renilla normaliser, rep 1": 4661}
{"gene": "CAH16 (Carbonic anhydrase 16)", "amplicon": "DRSC15371", "E2F firefly, rep 1": 86490, "Renilla normaliser, rep 1": 5211}
{"gene": "Als2 (Amyotrophic lateral sclerosis 2)", "amplicon": "DRSC11806", "E2F firefly, rep 1": 74164, "Renilla normaliser, rep 1": 3492}
{"gene": "Rrp46", "amplicon": "DRSC15537", "E2F firefly, rep 1": 1.33e5, "Renilla normaliser, rep 1": 6646}
{"gene": "Cul4 (Cullin 4)", "amplicon": "DRSC07243", "E2F firefly, rep 1": 2937, "Renilla normaliser, rep 1": 235}
{"gene": "Ccdc114 (Coiled-coil domain containing protein 114)", "amplicon": "DRSC15025", "E2F firefly, rep 1": 1.06e5, "Renilla normaliser, rep 1": 5941}
{"gene": "CG9864", "amplicon": "DRSC07346", "E2F firefly, rep 1": 1.34e5, "Renilla normaliser, rep 1": 5061}
{"gene": "lectin-21Cb", "amplicon": "DRSC00355", "E2F firefly, rep 1": 1.75e5, "Renilla normaliser, rep 1": 6756}
{"gene": "Rab26", "amplicon": "DRSC11837", "E2F firefly, rep 1": 72777, "Renilla normaliser, rep 1": 3237}
{"gene": "Rab26", "amplicon": "DRSC11838", "E2F firefly, rep 1": 1.27e5, "Renilla normaliser, rep 1": 6723}
{"gene": "Rab26", "amplicon": "DRSC11839", "E2F firefly, rep 1": 1.41e5, "Renilla normaliser, rep 1": 6608}
{"gene": "bdg (bedraggled)", "amplicon": "DRSC07136", "E2F firefly, rep 1": 61591, "Renilla normaliser, rep 1": 3232}
{"gene": "CG14687", "amplicon": "DRSC14910", "E2F firefly, rep 1": 1.50e5, "Renilla normaliser, rep 1": 7079}
{"gene": "CG11836", "amplicon": "DRSC14396", "E2F firefly, rep 1": 63978, "Renilla normaliser, rep 1": 2710}
{"gene": "CG15237", "amplicon": "DRSC04971", "E2F firefly, rep 1": 1.03e5, "Renilla normaliser, rep 1": 4212}
{"gene": "Cyp12e1 (Cytochrome P450 12e1)", "amplicon": "DRSC16622", "E2F firefly, rep 1": 1.42e5, "Renilla normaliser, rep 1": 6080}
{"gene": "Archease", "amplicon": "DRSC16025", "E2F firefly, rep 1": 1.50e5, "Renilla normaliser, rep 1": 8351}
{"gene": "Alg13 (Alg13 UDP-N-acetylglucosaminyltransferase subunit)", "amplicon": "DRSC14864", "E2F firefly, rep 1": 1.13e5, "Renilla normaliser, rep 1": 5975}
{"gene": "CG13653", "amplicon": "DRSC14653", "E2F firefly, rep 1": 1.08e5, "Renilla normaliser, rep 1": 6284}
{"gene": "PDCD-5 (Programmed Cell Death 5)", "amplicon": "DRSC09955", "E2F firefly, rep 1": 1.69e5, "Renilla normaliser, rep 1": 9154}

Already shown: entries from further up.
{"gene": "CG9864", "amplicon": "DRSC07346", "E2F firefly, rep 1": 1.34e5, "Renilla normaliser, rep 1": 5061}
{"gene": "lectin-21Cb", "amplicon": "DRSC00355", "E2F firefly, rep 1": 1.75e5, "Renilla normaliser, rep 1": 6756}
{"gene": "Rab26", "amplicon": "DRSC11837", "E2F firefly, rep 1": 72777, "Renilla normaliser, rep 1": 3237}
{"gene": "Rab26", "amplicon": "DRSC11838", "E2F firefly, rep 1": 1.27e5, "Renilla normaliser, rep 1": 6723}
{"gene": "Rab26", "amplicon": "DRSC11839", "E2F firefly, rep 1": 1.41e5, "Renilla normaliser, rep 1": 6608}
